Data from patent US20070191273A1.
Results are given in words; binding and its absence hold for the method and conditions named. For some of these results: In cells and extracts the contact can be indirect. Some binding calls cover weakened binding; strength is not graded here.

Assays:
[1] = target: T1, VEGF-A, endogenous, mouse cornea (mouse) (UniProt Q00731); test: co-immunoprecipitation from mouse cornea (FIG. 1, panel H)
T1 sequence (looked up): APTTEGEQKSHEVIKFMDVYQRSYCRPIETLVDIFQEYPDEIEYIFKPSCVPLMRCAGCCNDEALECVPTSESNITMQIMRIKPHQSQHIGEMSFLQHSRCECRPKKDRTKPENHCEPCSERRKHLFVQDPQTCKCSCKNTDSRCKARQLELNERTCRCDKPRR

[2] = target: T1, VEGF-A, endogenous, mouse cornea (mouse); test: co-immunoprecipitation from mouse cornea lysate: IP with anti-VEGF-A antibody, immunoblot with biotinylated anti-flt-1 N-terminus antibody
[3] = target: T1, VEGF-A, endogenous, mouse cornea (mouse); test: immunoprecipitation of mouse corneas with antibody to the sFLT unique tail, western blot for VEGF (25 kD band); supernatant versus immunoprecipitate
[4] = target: T1, VEGF-A, endogenous, mouse cornea (mouse); test: immunoprecipitation of mouse corneas with antibody to the sFLT unique tail, western blot for VEGF (25 kD band)

binding [1]: binds
binding [2]: binds
binding [3]: binds
binding [4]: binds
B1: soluble VEGF receptor-1 (sflt-1), endogenous, mouse cornea (receptor, UniProt P35969 23-657, looked up)
chain: YGSGSKLKVPELSLKGTQHVMQAGQTLFLKCRGEAAHSWSLPTTVSQEDKRLSITPPSACGRDNRQFCSTLTLDTAQANHTGLYTCRYLPTSTSKKKKAESSIYIFVSDAGSPFIEMHTDIPKLVHMTEGRQLIIPCRVTSPNVTVTLKKFPFDTLTPDGQRITWDSRRGFIIANATYKEIGLLNCEATVNGHLYQTNYLTHRQTNTILDVQIRPPSPVRLLHGQTLVLNCTATTELNTRVQMSWNYPGKATKRASIRQRIDRSHSHNNVFHSVLKINNVESRDKGLYTCRVKSGSSFQSFNTSVHVYEKGFISVKHRKQPVQETTAGRRSYRLSMKVKAFPSPEIVWLKDGSPATLKSARYLVHGYSLIIKDVTTEDAGDYTILLGIKQSRLFKNLTATLIVNVKPQIYEKSVSSLPSPPLYPLGSRQVLTCTVYGIPRPTITWLWHPCHHNHSKERYDFCTENEESFILDPSSNLGNRIESISQRMTVIEGTNKTVSTLVVADSQTPGIYSCRAFNKIGTVERNIKFYVTDVPNGFHVSLEKMPAEGEDLKLSCVVNKFLYRDITWILLRTVNNRTMHHSISKQKMATTQDYSITLNLVIKNVSLEDSGTYACRARNIYTGEDILRKTEVLVR
